Measured values from article doi:10.1101/2025.06.08.658535.
Like-named read-outs stand apart in the source and are kept apart here. No constants are given. Whether binding was seen depends on the method and setting. Binding seen in cells or lysates may run through a third protein. Tags and fused reporters may be left off the sequences shown.

Sequences of proteins named here, by UniProt entry; tags and fusion partners are left off. A change or cut given only in a name is not applied to a line headed by its entry.
UniProt Q96SW2: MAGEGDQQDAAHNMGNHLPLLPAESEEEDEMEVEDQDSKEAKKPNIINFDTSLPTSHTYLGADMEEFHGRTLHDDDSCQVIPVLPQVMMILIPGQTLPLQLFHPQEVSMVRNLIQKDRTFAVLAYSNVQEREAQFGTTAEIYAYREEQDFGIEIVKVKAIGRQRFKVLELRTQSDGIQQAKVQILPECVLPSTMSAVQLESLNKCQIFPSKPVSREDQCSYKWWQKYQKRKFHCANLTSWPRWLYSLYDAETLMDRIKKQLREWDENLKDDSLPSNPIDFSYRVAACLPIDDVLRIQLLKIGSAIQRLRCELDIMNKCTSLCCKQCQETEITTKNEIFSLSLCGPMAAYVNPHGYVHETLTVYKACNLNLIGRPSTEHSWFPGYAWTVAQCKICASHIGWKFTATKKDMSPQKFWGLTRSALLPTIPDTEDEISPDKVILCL

How the values were obtained:
[1] = target: HisCRBN/HisDDB1 purified protein (UniProt Q96SW2); assay: FRET or BRET
[2] = target: HisCRBN/HisDDB1 purified protein (UniProt Q96SW2); assay: FRET or BRET; remark: listed apart in the source

- binding [1]: no binding
- binding [2]: no binding
B1: nLuc-VAV1 full length R796A (protein, UniProt P15498 1-845)
chain: MELWRQCTHWLIQCRVLPPSHRVTWDGAQVCELAQALRDGVLLCQLLNNLLPHAINLREVNLRPQMSQFLCLKNIRTFLSTCCEKFGLKRSELFEAFDLFDVQDFGKVIYTLSALSWTPIAQNRGIMPFPTEEESVGDEDIYSGLSDQIDDTVEEDEDLYDCVENEEAEGDEIYEDLMRSEPVSMPPKMTEYDKRCCCLREIQQTEEKYTDTLGSIQQHFLKPLQRFLKPQDIEIIFINIEDLLRVHTHFLKEMKEALGTPGAANLYQVFIKYKERFLVYGRYCSQVESASKHLDRVAAAREDVQMKLEECSQRANNGRFTLRDLLMVPMQRVLKYHLLLQELVKHTQEAMEKENLRLALDAMRDLAQCVNEVKRDNETLRQITNFQLSIENLDQSLAHYGRPKIDGELKITSVERRSKMDRYAFLLDKALLICKRRGDSYDLKDFVNLHSFQVRDDSSGDRDNKKWSHMFLLIEDQGAQGYELFFKTRELKKKWMEQFEMAISNIYPENATANGHDFQMFSFEETTSCKACQMLLRGTFYQGYRCHRCRASAHKECLGRVPPCGRHGQDFPGTMKKDKLHRRAQDKKRNELGLPKMEVFQEYYGLPPPPGAIGPFLRLNPGDIVELTKAEAEQNWWEGRNTSTNEIGWFPCNRVKPYVHGPPQDLSVHLWYAGPMERAGAESILANRSDGTFLVRQRVKDAAEFAISIKYNVEVKHIKIMTAEGLYRITEKKAFRGLTELVEFYQQNSLKDCFKSLDTTLQFPFKEPEKRTISRPAVGSTKYFGTAKARYDFCAADRSELSLKEGDIIKILNKKGQQGWWRGEIYGRVGWFPANYVEEDYSEYC
